According to patent publication US20180207177A1, “TREATMENT OF TRIPLE NEGATIVE BREAST CANCER UTILIZING ANDROST-5-ENE-3b,17b-DIOL (b-AED), ANDROST-5-ENE-3b,7b,17b-TRIOL (b-AET) AND ESTRADIOL (E2)” (Government of the United States as Represented by the …, priority 2017, published 2018):
At least one compound was matched to its structure with a doubt left.

Tests used:
[1] = test system: MDA-MB-231 breast cancer cell; assay: Cell death in MDA-MB-231 breast cancer cell cultures; type: cell-based; settings: 25 μM β-AED, 25 μM β-AET, 5 nM E2; PEG 300/LIPOFECTAMINE vehicle
Protocol: (§1) Hormone dependent, noninvasive, epithelial phenotype (ER/PR positive MCF-7 breast cancer cells) and hormone independent, invasive, mesenchymal phenotype (ER/PR negative MDA-MB-231 breast cancer cell) cell suspensions were acquired and prepared in complete medium (DMEM/F12, 10% FBS, 1% penicillin/streptomycin (Gibco)). Cellular concentration was adjusted to 2×10^5 cells/mL.
(§2) Androstene hormone solutions according to embodiments of the present invention were prepared from a first solution and a second solution. For the first solution, 3.0 mg of β-AED or β-AET was added to warm PEG 300 to prepare 50 mM stock. For the second solution, 10 μL of LIPOFECTAMINE (3:1 DOSPA:DOPE) was introduced to 100 μL of PEG 300, mixed, and incubated in a water bath at 42° C. for 30 min. The first and second solutions were then mixed in a sonicator water bath at 42° C. for 1 hr. The final concentration was 50 mM β-AED (or AET, as used).
(§3) A β-estradiol solution was also prepared by adding 2.7 mg of β-estradiol to 200 μL warmed PEG 300 with LIPOFECTAMINE and then further diluted 1:1000 with PEG-300. The final concentration was 50 μM.
(§4) A diluted β-AED (or β-AET) solution was prepared with complete medium at a final concentration of 50 μM (1:1000 dilute of 50 mM). Likewise, a diluted β-E2 solution was prepared with complete medium at a final concentration of 10 nM (1:5000 dilute of 50 μM). […]

293T cells = assay: Biological function (phenotype, mobile cells) in 293T cells; type: cell-based, human
Protocol: A non-toxic vehicle for administration of androstene hormones according to embodiments of the present invention was prepared from a first solution and a second solution. The first solution, comprising liposomal formulation, was placed in PEG 300 to a concentration of 5% and heated in a sonicating water bath to about 45° C. The second solution, comprising a selected hormone (one or more of 5Δ-androsten-3β, 17α-diol, 5Δ-androsten-3β, 17β-diol, or 5Δ-androsten-3β,7β,17β-triol), was placed in PEG 300 and heated in a sonicating water bath to about 45° C. The first and second solutions were then combine and stirred until dissolved.
Biological function was tested in 293T cells, which is a human embryonic cell line transformed with Large T antigen […] SV40. This hypotriploid (polyploid) cell line is particularly useful in such transformation studies and has very distinct phenotypes when grown. All androstene hormone treatment applications were at concentrations of 25 μM.

[2] = test system: MCF-7 breast cancer cells; assay: Cell death and growth in MCF-7 breast cancer cell cultures; type: cell-based; settings: 5 nM E2
Protocol: as §1, §2, §3, §4

C[C@]12CC[C@@H]3c4ccc(O)cc4CC[C@H]3[C@@H]1CC[C@@H]2O [E2, estradiol]
MDA-MB-231 Cell Death Amount [1]: Not observed
mobile cells / cell processes (photograph) (293T cells; vehicle PEG 300, androstene hormone 25 μM): many more cell processes
mobile cells / mobile elements and processes (photograph) (293T cells; vehicle PEG 300 and LIPOFECTAMINE, β-AED 25 μM, E2 5 nM): many large islands with mobile processes, small islands with mobile process, and mobile cells forming interconnections with other elements
MCF7 Cell Death Amount ([2]; 25 μM β-AED, 25 μM β-AET, PEG 300/LIPOFECTAMINE vehicle): Not observed
cell growth / cell density (microscopic photograph) ([2]; MCF-7 grown for 5 days, compared to vehicle FIG. 14, 25 μM androstene): thick and similar to the cell growth of FIGS. 14 and 16
